From publication PMC3219591
Results are given in words; binding and its absence hold for the method and conditions named. Binding seen in cells or lysates may run through a third protein. Some binding calls cover weakened binding; strength is not graded here.

The chains behind the UniProt entries cited, without tags or fusion partners.
UniProt P01108: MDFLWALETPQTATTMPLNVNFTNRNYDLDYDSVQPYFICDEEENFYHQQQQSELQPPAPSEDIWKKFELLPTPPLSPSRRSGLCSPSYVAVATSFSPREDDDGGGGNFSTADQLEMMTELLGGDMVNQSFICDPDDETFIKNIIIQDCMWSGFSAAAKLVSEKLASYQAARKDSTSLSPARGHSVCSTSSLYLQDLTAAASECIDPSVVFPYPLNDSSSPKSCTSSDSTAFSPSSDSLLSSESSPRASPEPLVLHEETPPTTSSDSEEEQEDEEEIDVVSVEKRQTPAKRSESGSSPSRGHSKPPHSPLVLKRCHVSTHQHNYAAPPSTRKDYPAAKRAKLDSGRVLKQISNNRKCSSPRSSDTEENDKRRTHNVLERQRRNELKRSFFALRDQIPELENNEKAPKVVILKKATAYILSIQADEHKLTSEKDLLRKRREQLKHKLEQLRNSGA
UniProt Q969H0: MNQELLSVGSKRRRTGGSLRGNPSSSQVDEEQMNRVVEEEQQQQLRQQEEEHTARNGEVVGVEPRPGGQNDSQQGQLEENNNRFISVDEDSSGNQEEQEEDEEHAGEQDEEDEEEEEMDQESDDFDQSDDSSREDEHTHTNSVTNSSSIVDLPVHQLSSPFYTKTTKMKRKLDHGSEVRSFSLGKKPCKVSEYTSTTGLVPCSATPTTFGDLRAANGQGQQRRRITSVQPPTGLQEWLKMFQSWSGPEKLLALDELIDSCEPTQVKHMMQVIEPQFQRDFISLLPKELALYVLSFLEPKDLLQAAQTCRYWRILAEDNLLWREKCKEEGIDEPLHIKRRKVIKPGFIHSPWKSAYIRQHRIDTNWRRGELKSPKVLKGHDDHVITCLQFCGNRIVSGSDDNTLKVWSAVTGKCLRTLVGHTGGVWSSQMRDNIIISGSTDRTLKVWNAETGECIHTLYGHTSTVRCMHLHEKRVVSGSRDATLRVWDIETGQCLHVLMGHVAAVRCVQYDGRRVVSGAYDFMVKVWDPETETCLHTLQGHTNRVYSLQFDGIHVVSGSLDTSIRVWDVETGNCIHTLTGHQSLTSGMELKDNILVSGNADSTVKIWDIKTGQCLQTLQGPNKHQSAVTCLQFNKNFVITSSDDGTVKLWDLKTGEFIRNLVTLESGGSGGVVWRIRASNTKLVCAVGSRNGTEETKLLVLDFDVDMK
UniProt P01106: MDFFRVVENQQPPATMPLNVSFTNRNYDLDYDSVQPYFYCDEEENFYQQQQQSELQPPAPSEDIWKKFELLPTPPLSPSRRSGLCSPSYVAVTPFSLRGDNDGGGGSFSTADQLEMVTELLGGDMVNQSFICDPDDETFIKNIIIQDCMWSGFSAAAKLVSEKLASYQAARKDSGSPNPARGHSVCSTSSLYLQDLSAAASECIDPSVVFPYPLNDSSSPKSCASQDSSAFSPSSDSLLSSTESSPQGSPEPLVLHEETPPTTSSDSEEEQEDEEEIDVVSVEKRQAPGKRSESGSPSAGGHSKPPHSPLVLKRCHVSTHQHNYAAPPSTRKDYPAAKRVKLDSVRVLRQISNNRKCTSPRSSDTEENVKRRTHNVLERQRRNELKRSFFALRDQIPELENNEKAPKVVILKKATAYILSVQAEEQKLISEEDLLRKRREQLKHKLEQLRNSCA

T1: endogenous PIRH2 in RKO cells (human (endogenous in RKO)) (UniProt Q96PM5)
T1 sequence: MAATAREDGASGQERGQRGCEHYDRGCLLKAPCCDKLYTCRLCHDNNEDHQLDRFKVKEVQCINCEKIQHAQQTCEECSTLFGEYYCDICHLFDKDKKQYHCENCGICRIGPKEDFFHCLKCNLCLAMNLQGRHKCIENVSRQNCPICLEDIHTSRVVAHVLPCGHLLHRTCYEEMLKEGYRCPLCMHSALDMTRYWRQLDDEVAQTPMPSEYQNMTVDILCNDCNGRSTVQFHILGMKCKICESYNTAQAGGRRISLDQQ

T2: murine Pirh2, endogenous in NIH3T3 cells (mouse (endogenous in NIH3T3)) (UniProt Q9CR50)
T2 sequence: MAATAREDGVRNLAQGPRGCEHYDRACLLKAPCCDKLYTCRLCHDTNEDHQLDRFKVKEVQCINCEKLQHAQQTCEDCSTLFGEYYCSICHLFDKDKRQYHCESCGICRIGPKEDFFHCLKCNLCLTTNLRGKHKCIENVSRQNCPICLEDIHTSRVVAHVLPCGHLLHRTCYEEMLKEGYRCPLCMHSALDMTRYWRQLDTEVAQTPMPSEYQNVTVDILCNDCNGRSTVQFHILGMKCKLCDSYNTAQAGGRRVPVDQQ


Columns and labels:
[1] = biological target: T1, endogenous PIRH2 in RKO cells (human (endogenous in RKO)); assay: co-IP; endogenous proteins, RKO cell lysate; IP with anti-PIRH2 antibody (Santa Cruz FL261), immunoblot
[2] = biological target: T2, murine Pirh2, endogenous in NIH3T3 cells (mouse (endogenous in NIH3T3)); assay: co-IP; endogenous proteins, non-transfected NIH3T3 lysate; IP with antibodies against murine Pirh2 or murine c-Myc, immunoblot
[3] = biological target: murine c-Myc, endogenous in NIH3T3 cells (mouse (endogenous in NIH3T3)) (UniProt P01108); assay: as above

Row | binding [1] | Molecule | further results
1 | no binding | endogenous FBW7 in RKO cells (from UniProt Q969H0 1-707) | –
2 | binds | endogenous c-MYC in RKO cells (from UniProt P01106 1-454) | –
3 | – | murine c-Myc, endogenous in NIH3T3 cells (from UniProt P01108 1-454) | binding [2]: binds
4 | – | murine Pirh2, endogenous in NIH3T3 cells (protein, UniProt Q9CR50 1-261) MAATAREDGVRNLAQGPRGCEHYDRACLLKAPCCDKLYTCRLCHDTNEDHQLDRFKVKEVQCINCEKLQHAQQTCEDCSTLFGEYYCSICHLFDKDKRQYHCESCGICRIGPKEDFFHCLKCNLCLTTNLRGKHKCIENVSRQNCPICLEDIHTSRVVAHVLPCGHLLHRTCYEEMLKEGYRCPLCMHSALDMTRYWRQLDTEVAQTPMPSEYQNVTVDILCNDCNGRSTVQFHILGMKCKLCDSYNTAQAGGRRVPVDQQ | binding [3]: binds
